The target of test [1] is GFP-TBC1D19 (stably expressed in RPE-1 cells) (UniProt Q8N5T2). In words: co-IP.
Test [2] concerns the target GFP-TBC1D19 (transfected in 293T cells) (UniProt Q8N5T2). Nature of the test: co-IP.

By UniProt entry, the sequences of proteins in these tests, tags left out.
UniProt Q8N5T2: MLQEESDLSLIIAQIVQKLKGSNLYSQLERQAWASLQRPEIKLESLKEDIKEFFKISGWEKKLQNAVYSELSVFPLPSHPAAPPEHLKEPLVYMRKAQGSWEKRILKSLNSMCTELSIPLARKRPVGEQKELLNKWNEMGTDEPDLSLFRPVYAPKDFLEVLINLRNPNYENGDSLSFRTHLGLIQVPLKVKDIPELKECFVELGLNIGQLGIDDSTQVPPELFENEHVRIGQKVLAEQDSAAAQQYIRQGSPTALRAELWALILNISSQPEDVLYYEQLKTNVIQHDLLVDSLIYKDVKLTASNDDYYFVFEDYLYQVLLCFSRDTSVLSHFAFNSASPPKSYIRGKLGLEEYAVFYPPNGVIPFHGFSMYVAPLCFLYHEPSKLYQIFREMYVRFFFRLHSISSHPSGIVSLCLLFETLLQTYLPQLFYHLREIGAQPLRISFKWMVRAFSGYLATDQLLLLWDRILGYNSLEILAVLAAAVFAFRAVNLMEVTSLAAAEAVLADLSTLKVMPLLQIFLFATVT
UniProt O95922: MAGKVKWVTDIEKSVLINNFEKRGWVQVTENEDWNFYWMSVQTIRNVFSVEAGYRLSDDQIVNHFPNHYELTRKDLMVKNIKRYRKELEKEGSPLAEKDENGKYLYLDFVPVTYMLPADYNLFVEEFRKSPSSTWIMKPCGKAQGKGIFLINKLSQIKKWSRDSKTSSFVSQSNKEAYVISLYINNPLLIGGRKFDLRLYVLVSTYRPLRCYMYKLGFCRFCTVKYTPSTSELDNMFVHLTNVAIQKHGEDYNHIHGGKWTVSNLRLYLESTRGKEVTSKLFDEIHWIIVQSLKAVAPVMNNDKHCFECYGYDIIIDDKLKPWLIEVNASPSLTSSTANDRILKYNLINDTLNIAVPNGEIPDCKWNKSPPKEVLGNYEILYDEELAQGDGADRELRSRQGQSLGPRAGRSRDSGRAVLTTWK
UniProt Q6NSI8: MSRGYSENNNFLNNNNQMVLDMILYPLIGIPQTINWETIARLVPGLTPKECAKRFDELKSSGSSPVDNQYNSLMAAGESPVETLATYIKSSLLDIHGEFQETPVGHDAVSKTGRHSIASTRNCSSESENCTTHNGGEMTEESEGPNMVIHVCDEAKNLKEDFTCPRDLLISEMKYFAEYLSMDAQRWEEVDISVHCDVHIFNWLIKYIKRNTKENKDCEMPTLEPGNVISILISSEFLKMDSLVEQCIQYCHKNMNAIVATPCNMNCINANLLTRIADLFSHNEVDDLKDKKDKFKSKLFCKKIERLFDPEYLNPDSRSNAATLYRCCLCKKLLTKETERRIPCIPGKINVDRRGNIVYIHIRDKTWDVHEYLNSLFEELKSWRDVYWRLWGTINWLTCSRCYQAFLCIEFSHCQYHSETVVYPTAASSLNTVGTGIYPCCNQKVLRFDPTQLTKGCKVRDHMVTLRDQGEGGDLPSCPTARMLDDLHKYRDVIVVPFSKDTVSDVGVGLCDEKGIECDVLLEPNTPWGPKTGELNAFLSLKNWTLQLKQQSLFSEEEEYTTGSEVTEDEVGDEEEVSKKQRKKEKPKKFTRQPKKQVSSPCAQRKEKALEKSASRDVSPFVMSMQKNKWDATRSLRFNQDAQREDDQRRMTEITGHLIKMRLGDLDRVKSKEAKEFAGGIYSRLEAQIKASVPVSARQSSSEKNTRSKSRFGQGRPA
UniProt Q3SXY8: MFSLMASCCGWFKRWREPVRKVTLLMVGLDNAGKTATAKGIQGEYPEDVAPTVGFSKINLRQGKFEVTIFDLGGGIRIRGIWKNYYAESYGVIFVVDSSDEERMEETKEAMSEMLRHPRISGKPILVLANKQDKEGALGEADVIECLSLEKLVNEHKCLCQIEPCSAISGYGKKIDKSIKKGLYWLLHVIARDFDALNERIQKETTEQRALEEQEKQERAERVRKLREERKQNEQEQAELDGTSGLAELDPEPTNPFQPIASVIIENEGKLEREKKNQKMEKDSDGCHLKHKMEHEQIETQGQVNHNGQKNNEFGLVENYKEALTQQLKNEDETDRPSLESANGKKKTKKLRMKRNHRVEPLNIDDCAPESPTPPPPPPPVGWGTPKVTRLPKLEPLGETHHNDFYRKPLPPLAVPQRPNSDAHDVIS
UniProt Q9BSH3: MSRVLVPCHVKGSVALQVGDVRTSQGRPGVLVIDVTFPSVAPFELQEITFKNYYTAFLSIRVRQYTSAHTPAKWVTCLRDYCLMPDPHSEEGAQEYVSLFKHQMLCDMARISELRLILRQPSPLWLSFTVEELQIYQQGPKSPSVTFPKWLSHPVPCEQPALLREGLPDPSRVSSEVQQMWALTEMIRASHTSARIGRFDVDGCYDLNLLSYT

These are yes or no findings as the source states them, for the method shown. In cells and extracts the contact can be indirect. Some binding calls cover weakened binding; strength is not graded here.

On to TTLL1 (from UniProt O95922 1-423), for which, in test [1], the binding entry was “binds”.

For the molecule “KIAA1841/SANBR (from UniProt Q6NSI8 1-718)”, in test [1], the binding result is “binds”.

Consider “mCherry-Arl13b (from UniProt Q3SXY8 1-428)”, for which the binding result in test [2] is “binds”.

For the molecule NICN1 (from UniProt Q9BSH3 1-213), the binding entry in test [1] is given as “binds”.

B1: TPGS1 (protein, UniProt Q6ZTW0 1-290)
chain: MAAVEKRRQAVPPPAGFTDSGRQSVSRAAGAAESEEDFLRQVGVTEMLRAALLKVLEARPEEPIAFLAHYFENMGLRSPVNGGAGEPPGQLLLQQQRLGRALWHLRLAHHSQRAAFNNNVSVAYECLSAGGRRKRPGLDGRTYSELLRRICRDGQAPEEVVAPLLRKVQCRDHEAVPLSVFRAGTLTCFVLLEFVARAGALFQLLEDSAAAVADRRVGQAVLDTLEGALQASDAAAPARFLEAGSRLGPDSLALALDRAVGGRRPSAPMTREEFLERAAALFIAKVKPVG
B1: the binding entry in test [1] is “binds”.

B2: LRRC49/CSTPP2 (protein, UniProt Q8IUZ0 1-686)
chain: MIPGKYRSVSGRAANNVNCGLHLVIQTSSLPEKNKVEFKLNKDTSSFPGRLLQHDLERNYSSRQGDHINLVSSSLSSFPILQRSSEEKILYSDRLSLERQKLTVCPIINGEDHLRLLNFQHNFITRIQNISNLQKLISLDLYDNQIEEISGLSTLRCLRVLLLGKNRIKKISNLENLKSLDVLDLHGNQITKIENINHLCELRVLNLARNFLSHVDNLNGLDSLTELNLRHNQITFVRDVDNLPCLQHLFLSFNNISSFDSVSCLADSSSLSDITFDGNPIAQESWYKHTVLQNMMQLRQLDMKRITEEERRMASVLAKKEEEKKRESHKQSLLKEKKRLTINNVARQWDLQQQRVANIATNEDRKDSDSPQDPCQIDGSTLSAFPEETGPLDSGLNNALQGLSVIDTYLVEVDGDTLSLYGSGALESLDRNWSVQTAGMITTVSFTFIEFDEIVQVLPKLKIKFPNSLHLKFKETNLVMLQQFNALAQLRRIDQLTIDPQGNPVVNFTLWKYYVLFRLSHFSMQKINGTEVTQNDMIMAERLFGILAHVASSELPQYRLISILGDARKKQFRYLLESKGKKPGIINEENNDSKRLVGENTNRATLNYTTRDFYNEKLEEIKEKKKFCKTYIEDLVKEATEINMKNEALQKLWPQMFIELVRDAVIEIRNKNSYMKLCLQQITDQK
As for B2, the binding result in test [1] is on record as “binds”.

B3: C11orf49/CSTPP1 (protein, UniProt Q9H6J7 1-331)
chain: MLSPERLALPDYEYLAQRHVLTYMEDAVCQLLENREDISQYGIARFFTEYFNSVCQGTHILFREFSFVQATPHNRVSFLRAFWRCFRTVGKNGDLLTMKEYHCLLQLLCPDFPLELTQKAARIVLMDDAMDCLMSFSDFLFAFQIQFYYSEFLDSVAAIYEDLLSGKNPNTVIVPTSSSGQHRQRPALGGAGTLEGVEASLFYQCLENLCDRHKYSCPPPALVKEALSNVQRLTFYGFLMALSKHRGINQALGALPDKGDLMHDPAMDEELERLLAQVPGLVNSVTASPEASCLPSRTPPRVGSPWRPLHHSRKVDGESDGSTEETDESET
Turning to B3, the binding result in test [1] is “binds”.

(Values after doi:10.1101/2025.03.03.641315.)
